In doi:10.1101/2024.11.14.623549 (bioRxiv, 2024) one finds binding data, which are given here for three molecules.

Results are given in words; binding and its absence hold for the method and conditions named. Some binding calls cover weakened binding; strength is not graded here. For part of these data: Sequences can lack the tags named with a protein.

B1: Sla2ccRTH (Sla2 residues 351-968) (domain or fragment, Saccharomyces cerevisiae, UniProt P33338 351-968, looked up)
chain: ATAQMQPDFWANQQAQFANEQNRLEQERVQQLQQQQAQQELFQQQLQKAQQDMMNMQLQQQNQHQNDLIALTNQYEKDQALLQQYDQRVQQLESEITTMDSTASKQLANKDEQLTALQDQLDVWERKYESLAKLYSQLRQEHLNLLPRFKKLQLKVNSAQESIQKKEQLEHKLKQKDLQMAELVKDRDRARLELERSINNAEADSAAATAAAETMTQDKMNPILDAILESGINTIQESVYNLDSPLSWSGPLTPPTFLLSLLESTSENATEFATSFNNLIVDGLAHGDQTEVIHCVSDFSTSMATLVTNSKAYAVTTLPQEQSDQILTLVKRCAREAQYFFEDLMSENLNQVGDEEKTDIVINANVDMQEKLQELSLAIEPLLNIQSVKSNKETNPHSELVATADKIVKSSEHLRVDVPKPLLSLALMIIDAVVALVKAAIQCQNEIATTTSIPLNQFYLKNSRWTEGLISAAKAVAGATNVLITTASKLITSEDNENTSPEQFIVASKEVAASTIQLVAASRVKTSIHSKAQDKLEHCSKDVTDACRSLGNHVMGMIEDDHSTSQQQQPLDFTSEHTLKTAEMEQQVEILKLEQSLSNARKRLGEIRRHAYYNQDDD

Experiment [1] deals with B1. As to the kind of experiment: mass photometry.
Experiment [2] deals with B1. Nature of the experiment: cryo-EM structure.
Experiment [3] concerns the target NusA conjugated to CLC (NusA-CLC) (Saccharomyces cerevisiae) (UniProt P17891). Nature of the experiment: mass photometry.

Consider NusA (from UniProt P0AFF6 1-495), for which the binding result in experiment [1] is reported as “no binding (tested: 50 nM)”.

B1: the binding entry in experiment [2] is reported as “binds”.

B2: NusA conjugated to CLC (NusA-CLC) (natural protein, Saccharomyces cerevisiae, UniProt P17891 1-233, looked up)
chain: MSEKFPPLEDQNIDFTPNDKKDDDTDFLKREAEILGDEFKTEQDDILETEASPAKDDDEIRDFEEQFPDINSANGAVSSDQNGSATVSSGNDNGEADDDFSTFEGANQSTESVKEDRSEVVDQWKQRRAVEIHEKDLKDEELKKELQDEAIKHIDDFYDSYNKKKEQQLEDAAKEAEAFLKKRDEFFGQDNTTWDRALQLINQDDADIIGGRDRSKLKEILLRLKGNAKAPGA
Turning to B2, in experiment [3], the binding result is reported as “no binding (tested: 50 nM)”.
